These are yes or no findings as the source states them, for the method shown. Binding seen in cells or lysates may run through a third protein. Some results given as binding are weak or reduced against the parent protein; the word gives no strength.
Biological target: T1, Gonadotropin Regulated Testicular RNA Helicase (GRTH/DDX25) (mouse (endogenous in testis)) (UniProt Q9QY15)
T1 sequence: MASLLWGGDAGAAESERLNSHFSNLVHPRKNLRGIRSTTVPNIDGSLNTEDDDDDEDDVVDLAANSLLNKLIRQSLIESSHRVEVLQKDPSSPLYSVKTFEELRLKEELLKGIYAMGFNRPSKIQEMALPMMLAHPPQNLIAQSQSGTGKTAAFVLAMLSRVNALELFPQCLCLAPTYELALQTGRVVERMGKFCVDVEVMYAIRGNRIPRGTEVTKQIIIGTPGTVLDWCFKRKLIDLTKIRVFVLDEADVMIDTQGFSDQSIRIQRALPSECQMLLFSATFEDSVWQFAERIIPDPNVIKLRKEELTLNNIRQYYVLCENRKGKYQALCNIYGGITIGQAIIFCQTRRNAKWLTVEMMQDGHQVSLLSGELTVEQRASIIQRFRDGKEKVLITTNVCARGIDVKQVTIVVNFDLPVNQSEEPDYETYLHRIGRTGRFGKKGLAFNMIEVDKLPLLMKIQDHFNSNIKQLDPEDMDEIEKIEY
Test: co-IP; polysomes from WT mouse testis extracts, pre-cleared with protein A agarose and normal IgG; polyclonal GRTH peptide (aa 465-477) antibody 2 h at 4°C, protein A-agarose overnight at 4°C, three washes; rabbit IgG as control

Amino acid sequences for entries named in this document (tags omitted).
UniProt Q6P5F9: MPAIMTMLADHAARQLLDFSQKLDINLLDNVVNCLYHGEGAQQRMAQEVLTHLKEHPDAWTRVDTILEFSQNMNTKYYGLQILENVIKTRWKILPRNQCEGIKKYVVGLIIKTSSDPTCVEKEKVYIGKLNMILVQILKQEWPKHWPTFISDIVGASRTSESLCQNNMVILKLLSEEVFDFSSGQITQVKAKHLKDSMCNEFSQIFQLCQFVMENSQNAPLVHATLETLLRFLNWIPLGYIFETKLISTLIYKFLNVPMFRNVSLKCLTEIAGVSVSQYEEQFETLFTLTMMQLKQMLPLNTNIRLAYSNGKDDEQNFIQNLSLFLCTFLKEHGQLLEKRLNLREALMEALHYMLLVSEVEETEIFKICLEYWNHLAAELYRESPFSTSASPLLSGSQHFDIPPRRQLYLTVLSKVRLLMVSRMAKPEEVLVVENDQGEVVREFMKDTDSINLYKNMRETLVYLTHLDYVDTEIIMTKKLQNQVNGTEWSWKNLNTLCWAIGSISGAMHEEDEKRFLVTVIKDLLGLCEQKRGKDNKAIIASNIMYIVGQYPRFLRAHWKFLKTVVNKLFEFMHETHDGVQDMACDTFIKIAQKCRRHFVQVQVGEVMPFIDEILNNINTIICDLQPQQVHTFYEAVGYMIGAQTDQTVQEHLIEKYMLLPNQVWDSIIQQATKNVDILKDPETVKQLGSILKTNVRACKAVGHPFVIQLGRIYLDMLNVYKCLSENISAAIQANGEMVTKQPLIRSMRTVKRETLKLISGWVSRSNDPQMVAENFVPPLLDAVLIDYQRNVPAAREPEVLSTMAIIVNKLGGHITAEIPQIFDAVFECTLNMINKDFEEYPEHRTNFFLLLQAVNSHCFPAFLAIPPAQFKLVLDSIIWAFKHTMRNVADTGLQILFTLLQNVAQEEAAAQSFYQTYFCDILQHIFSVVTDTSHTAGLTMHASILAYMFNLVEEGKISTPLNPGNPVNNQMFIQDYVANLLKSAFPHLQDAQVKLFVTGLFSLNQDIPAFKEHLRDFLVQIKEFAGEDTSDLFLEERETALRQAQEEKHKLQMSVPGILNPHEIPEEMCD

Substance: CRM1 (from UniProt Q6P5F9 1-1071)
- binding: binds

From PMC3316541
